System: STZ-induced diabetic mice
Assay: Tissue weight, body weight and food intake in STZ-induced diabetic mice
Format: in vivo, C57BL/6J mice
Conditions: 28 days

SMILES: CN(C)C(=N)N=C(N)N [Metf, metformin, reference compound]
- Tissue weight: Skeletal muscle (Metf 300 mg/kg/day oral): 1.208 ± 0.149 wt %
- Tissue weight: liver (Metf 300 mg/kg/day oral): 4.168 ± 0.100 wt %
- Tissue weight: spleen (Metf 300 mg/kg/day oral): 0.230 ± 0.007 wt %
- Weight gain (Metf 300 mg/kg/day oral): 2.32 ± 0.25 g

SMILES: C=C(CC[C@@H](C(=O)O)[C@H]1CC[C@@]2(C)C3=CC[C@H]4C(C)(C)[C@@H](O)CC[C@]4(C)C3=CC[C@]12C)C(C)C [TT, dehydroeburicoic acid]
- Tissue weight: Skeletal muscle (TT 10 mg/kg/day oral): 1.162 ± 0.097 wt %
- Tissue weight: liver (TT 10 mg/kg/day oral): 3.952 ± 0.138 wt %
- Tissue weight: spleen (TT 10 mg/kg/day oral): 0.213 ± 0.019 wt %
- Weight gain (TT 10 mg/kg/day oral): 2.73 ± 0.38 g
- Tissue weight: Skeletal muscle (TT 20 mg/kg/day oral): 1.112 ± 0.096 wt %
- Tissue weight: liver (TT 20 mg/kg/day oral): 3.966 ± 0.171 wt %
- Tissue weight: spleen (TT 20 mg/kg/day oral): 0.193 ± 0.021 wt %
- Weight gain (TT 20 mg/kg/day oral): 2.36 ± 0.27 g
- Tissue weight: Skeletal muscle (TT 40 mg/kg/day oral): 1.128 ± 0.110 wt %
- Tissue weight: spleen (TT 40 mg/kg/day oral): 0.215 ± 0.017 wt %

— patent US10449223B2, “Use of dehydroeburicoic acid from Antrodia camphorata in the treatment or prevention of diabetes and hyperlipidemia” (priority 2016, dated 2019)
